Measurements as given in article PMC5748754, “Elucidating the Skin Delivery of Aglycone and Glycoside Flavonoids: How the Structures Affect Cutaneous Absorption” (Nutrients, 2017).

Columns and labels:
[1] = test system: fMLF-activated human neutrophils (O2•– release); experiment: Superoxide anion (O2•–) inhibition in fMLF-activated human neutrophils; assay type: cell-based; details: inhibition percentage at 3 µM multiplied by nude mouse skin deposition at 6 mM
From the text: (§1) The protocol was approved by the Institutional Review Board at Chang Gung Memorial Hospital, and written informed consent was obtained from all volunteers (201600500B0C101). Whole blood was withdrawn from healthy volunteers between 20 and 30 years of age. Human neutrophils were isolated using a typical method of dextran sedimentation prior to centrifugation in a Ficoll-Hypaque gradient and hypotonic lysis of erythrocytes. The granulocyte layer was harvested and suspended in calcium-free HBSS at pH 7.4, which was maintained at 4 °C until use.
(§2) The reduction of ferricytochrome c was utilized for measuring the superoxide anion (O2^•–) release from the neutrophils. The human neutrophils (6 × 10^5 cells/mL) were incubated with 0.5 mg/mL ferricytochrome c and 1 mM CaCl2 at 37 °C, and were then treated with flavonoids (3 µM) in DMSO for 10 min. Neutrophils were stimulated by adding 0.1 µM fMLF with cytochalasin B (1 µg/mL). The reduction of ferricytochrome c was monitored by the absorbance at 550 nm using a U3010 ultraviolet/visible spectrophotometer (Hitachi, Tokyo, Japan). The human neutrophils were equilibrated with an elastase substrate (MeO-Suc-Ala-Ala-Pro-Val-p-nitroanilide, 100 µM) at 37 °C for 2 min. Flavonoids at a concentration of 3 µM were added into the neutrophil suspension for 10 min. The cells were activated by fMLF and cytochalasin B for a further 10 min. Elastase release was detected by measuring the change of absorbance at 405 nm.

[2] = test system: fMLF-activated human neutrophils (elastase release); experiment: Elastase release inhibition in fMLF-activated human neutrophils; assay type: cell-based; details: inhibition percentage at 3 µM multiplied by nude mouse skin deposition at 6 mM
From the text: as §1, §2

| SMILES | TIsuperoxide [1] | TIelastase [2] |
| --- | --- | --- |
| O=c1cc(-c2ccccc2)oc2cc(O)c(O)c(O)c12 [Baicalein] | 2.60 | 0.41 |
| O=C(O)[C@H]1O[C@@H](Oc2cc3oc(-c4ccccc4)cc(=O)c3c(O)c2O)[C@H](O)[C@@H](O)[C@@H]1O [Baicalin] | 0.53 | 0 |
| O=c1c(O)c(-c2cc(O)c(O)c(O)c2)oc2cc(O)cc(O)c12 [Myricetin] | 0.58 | 0.23 |
| C[C@@H]1O[C@@H](OC[C@H]2O[C@@H](Oc3c(-c4ccc(O)c(O)c4)oc4cc(O)cc(O)c4c3=O)[C@H](O)[C@@H](O)[C@@H]2O)[C@H](O)[C@H](O)[C@H]1O [Rutin] | 0.39 | 0.15 |
